The results in this text go back to patent publication US20140127235A1, “TARGETING HK alpha FOR CONTROLLING BLOOD PRESSURE AND REGULATING ELECTROLYTE BALANCE” (UNIVERSITY OF FLORIDA RESEARCH FOUNDATION, INC., priority 2011, published 2014).

The subject of the data set is H^+,K^+-ATPase. Put plainly: H+,K+-ATPase-mediated H+ secretion (JH) in intercalated cells of microperfused inner cortical collecting ducts from DOCP-treated mice (BCECF-AM). The settings on record: for Cl− Removal (change in pH) / Cl− Return (change in pH) / βi, buffering capacity: inner CCD of DOCP-treated mice. Type of data set: in vivo, mouse. Here is the method:
One likely mechanism for mineralocorticoid-induced changes in acid-base homeostasis was stimulation of renal H^+,K^+-ATPase activity in response to mineralocorticoid-induced K^+ deficits. Therefore, H^+,K^+-ATPase activity was assessed in inner cortical collecting ducts from control and DOCP-treated mice. Individual intercalated cells from microperfused collecting ducts were loaded with the pH sensitive fluorescent dye, BCECF-AM. The addition of inhibitors of the Na^+/H^+ exchanger and the H^+-ATPase allowed for the measurement of H^+,K^+-ATPase-mediated H^+ secretion (JH) in response to an acute intracellular acid load (NH4Cl). The overall rate of H^+,K^+-ATPase-mediated JH in intercalated cells from control mice was quite slow (˜15H^+/min) (FIG. 1).
Additional experiments were conducted to identify which intercalated cell subtype was responsible for the DOCP-induced increase in H^+,K^+-ATPase mediated JH. Again, the rate of H^+,K^+-ATPase-mediated JH was measured in intercalated cells of inner cortical collecting ducts from control and DOCP-treated mice. At the end of the experiment, A- and B-type ICs were differentiated by peritubular Cl^− removal and return as has been described previously^12,13 The characteristic inverse responses of A- and B-type intercalated cells to Cl^− removal and return were observed (Table 2). […] There was no difference in the rate of H^+,K^+-ATPase mediated JH in A- and B-type intercalated cells from control mice (FIG. 2).
Inner cortical collecting ducts were hand dissected at 4° C., transferred to a mounting chamber and perfused as described previously.^25 The ratiometric, pH sensitive dye, BCECF-AM (15 μM, Invitrogen) was added to the luminal perfusate for 10 minutes and fluorescence measurements were performed after dye de-esterification. Tubules were equilibrated with 100 nM bafilomycin A1 in the luminal perfusate and 10 μM EIPA in the peritubular solution for 20 minutes and inhibitors were present throughout the remainder of the experiment. Cells were acid loaded by a 3 minute, peritubular exposure to 40 mM NH4Cl followed by NH4Cl removal. Ratiometric intensity measurements 490/440) were made in individual, well defined ICs and converted to pH, using linear regression, based on a high K^+/nigericin calibration curve. Recovery rates were calculated from the linear portion of the pH, recovery phase starting with the lowest pH, achieved. The intrinsic buffering capacity was calculated from the formula βi=ΔHi/ΔpHi where ΔHi is the change in the calculated [NH4]i and ΔpHi the change in pHi during the acid loaded phase. Acid secretion rates (JH) were calculated from the formula JH=βi*ΔpH, (U/min) and expressed as [H^+]/min. A- and B-type ICs were differentiated using peritubular chloride removal and return in HCO3^− containing solutions as described previously.^25-27

On to `CC(C)(C)C(=O)OCC(=O)[C@H]1CC[C@H]2[C@@H]3CCC4=CC(=O)CC[C@]4(C)[C@H]3CC[C@]12C` [DOCP, desoxycorticosterone pivalate], for which, under “A-type IC”, the “Cl− Removal (change in pH)” value worked out at 0.59 ± 0.04 U/min; the “Cl− Return (change in pH)” value is recorded as −0.37 ± 0.06 U/min; the “βi, buffering capacity” value is 86.8 ± 16.6 U/min. Further, where the note is “B-type IC”, the “Cl− Removal (change in pH)” value was −0.35 ± 0.03 U/min; the “Cl− Return (change in pH)” value is listed as 0.37 ± 0.03 U/min; the “βi, buffering capacity” value amounted to 87.7 ± 9.02 U/min. The “effect on intrinsic buffering capacity (βi)” value (intercalated cells, DOCP treatment) is “not significantly affected”.
